The values that follow come from publication PMC10514286.

The assay deals with T1, caveolin-1 (mouse (endogenous in MLECs)) (UniProt P49817).
T1 sequence: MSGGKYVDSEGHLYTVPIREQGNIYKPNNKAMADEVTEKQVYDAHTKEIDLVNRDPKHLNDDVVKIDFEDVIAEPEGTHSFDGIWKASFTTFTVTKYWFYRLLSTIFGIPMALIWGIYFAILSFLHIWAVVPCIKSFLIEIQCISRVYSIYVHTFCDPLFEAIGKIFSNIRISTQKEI
Nature of the assay: co-IP; eNOS immunoprecipitated with anti-caveolin-1 antibody from MLEC lysate (Pierce IP Lysis Buffer, Protein A&G magnetic beads, 4 °C), Western blot; MLECs from CTR and dKO mice, from vehicle- or MITA-treated mice, with Ad-LacZ or CA-AMPK, with vehicle or captopril.

Results are given in words; binding and its absence hold for the method and conditions named. Binding seen in cells or lysates may run through a third protein. Some results given as binding are weak or reduced against the parent protein; the word gives no strength.

B1: endothelial nitric oxide synthase (enzyme, UniProt P70313 1-1202)
chain: MGNLKSVGQEPGPPCGLGLGLGLGLCGKQGPASPAPEPSQAPAPPSPTRPAPDHSPPLTRPPDGPRFPRVKNWEVGSITYDTLSAQAQQDGPCTSRRCLGSLVFPRKLQSRPTQGPSPTEQLLGQARDFINQYYNSIKRSGSQAHEQRLQEVEAEVAATGTYQLRESELVFGAKQAWRNAPRCVGRIQWGKLQVFDARDCRTAQEMFTYICNHIKYATNRGNLRSAITVFPQRCPGRGDFRIWNSQLIRYAGYRQQDGSVRGDPANVEITELCIQHGWTPGNGRFDVLPLLLQAPDEPPELFTLPPEMVLEVPLEHPTLEWFAALGLRWYALPAVSNMLLEIGGLEFPAAPFSGWYMSSEIGMRDLCDPHRYNILEDVAVCMDLDTRTTSSLWKDKAAVEINVAVLHSYQLAKVTIVDHHAATASFMKHLENEQKARGGCPADWAWIVPPISGSLTPVFHQEMVNYFLSPAFRYQPDPWKGSAAKGAGITRKKTFKEVANAVKISASLMGTVMAKRVKATILYGSETGRAQSYAQQLGRLFRKAFDPRVLCMDEYDVVSLEHEALVLVVTSTFGNGDPPENGESFAAALMEMSGPYNSSPRPEQHKSYKIRFNSVSCSDPLVSSWRRKRKESSNTDSAGALGTLRFCVFGLGSRAYPHFCAFARAVDTRLEELGGERLLQLGQGDELCGQEEAFRGWAQAAFQAACETFCVGEDAKAAARDIFSPKRSWKRQRYRLSTQAESLQLLPGLTHVHRRKMFQATILSVENLQSSKSTRATILVRLDTGGQEGLQYQPGDHIGVCPPNRPGLVEALLSRVEDPPPSTEPVAVEQLEKGSPGGPPPGWVRDPRLPPCTLRQALTYFLDITSPPSPRLLRLLSTLAEESSEQQELEALSQDPRRYEEWKWFSCPTLLEVLEQFPSVALPAPLILTQLPLLQPRYYSVSSAPSAHPGEIHLTIAVLAYRTQDGLGPLHYGVCSTWMSQLKAGDPVPCFIRGAPSFRLPPDPNLPCILVGPGTGIAPFRGFWQDRLHDIEIKGLQPAPMTLVFGCRCSQLDHLYRDEVLDAQQRGVFGQVLTAFSRDPGSPKTYVQDLLRTELAAEVHRVLCLEQGHMFVCGDVTMATSVLQTVQRILATEGGMELDEAGDVIGVLRDQQRYHEDIFGLTLRTQEVTSRIRTQSFSLQERQLRGAVPWSFDPPGPEIPGS
B1: the binding result is reported as “binds”.
